Data: patent EP4570793A1, “5-HT2A RECEPTOR INVERSE AGONIST, AND PREPARATION METHOD THEREFOR AND USE THEREOF” (Luye Innomind Pharma Shijiazhuang Co., Ltd., priority 2022, dated 2024)

Test system: SD rats
Assay: In-vivo pharmacodynamics: DOI-induced head twitch model
Details: 1.0-1.5 h after administration, DOI 2.5 mg/kg i.p.

## CN1CCC(N(Cc2ccc(F)cc2)C(=O)NCc2ccc(OCC(F)(F)F)nc2)C(F)C1 (single isomer, unassigned) [Compound 68A]
0.66 mg/kg intragastric
  Number of head twitches: extremely significantly reduced and 3.7 ··
2.0 mg/kg intragastric
  Number of head twitches: extremely significantly reduced and 0.9 ··

Not every entry of the source has a single result; some have several. This list holds those alone. An entry can have further records. Values that stand side by side do not match, cause unknown; they may come from other doses, times, organisms or constructs than stated.
